# PubChem BioAssay AID493014 (National Center for Advancing Translational Sciences (NCATS), 2011)
# The other results are listed elsewhere or left out. Further columns of the screen follow, without active or inactive calls. The list favours compounds with an active or inconclusive main result. Potencies come from curve fits of mixed quality, noted in brackets.
# Assay: qHTS Assay to Find Inhibitors of Chronic Active B-Cell Receptor Signaling
# Conditions: ABC-DLBCL IkBa-CBG/CBR reporter, luminescence ratio (green luciferase fused to IkBa over red control in TMD8 lymphoma cells), 4 h
# In short: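 TMD8 ABC-DLBCL cells carrying doxycycline-inducible green luciferase fused to IkappaBalpha plus unfused red luciferase were exposed to compounds (up to 46 uM) for 4 hrs at 37C. Activity came from the overlap-corrected green/red luminescence ratio.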
# [1] = measured here: CBR red luminescence, cell number
# [2] = measured here: IkBa-CBG green luminescence
Compound,AC50 [1],AC50 [2]
Cc1ccccc1NS(=O)(=O)c1ccc(C2CNC(=O)C2)cc1 (configuration not stated),"0.164 µM [falling, full curve, poor fit]",
O=C(NC(Cc1ccccc1)C(=O)O)C1CCCCC1 (configuration not stated),"0.184 µM [rising, full curve]",
CC(C)CC(=O)Nc1sc2c(c1C(=O)O)CCCCC2,"12.6 µM [falling, partial curve]",
CCOC(=O)N1CCC(NCCNC(=O)c2cccs2)CC1,"2.59 µM [falling, partial curve, poor fit]","1.64 µM [rising, partial curve, poor fit]"
CCOc1ccccc1NC(=O)c1ccc(F)c(S(=O)(=O)NCc2ccc3c(c2)OCO3)c1,"0.631 µM [rising, full curve, poor fit]",
CN(C)c1ccc(Sc2nnc(NC(=O)Nc3ccc(Cl)cc3Cl)s2)cc1,"14.6 µM [rising, partial curve]",
Cc1ccc(S(=O)(=O)N2CCN(C(=O)CC(C)n3cncn3)CC2)cc1C (configuration not stated),"6.31 µM [falling, partial curve, poor fit]",
CSc1nsc(SCCN2C(=O)c3ccccc3C2=O)n1,"0.082 µM [rising, full curve, poor fit]",
Nc1c(C(=O)NCc2ccco2)c2nc3ccccc3nc2n1CCc1ccc(F)cc1,"2.59 µM [falling, full curve, poor fit]",
COc1ccccc1N1CCN(CC(=O)c2ccc3ccn(C(C)=O)c3c2)CC1,"0.82 µM [rising, full curve, poor fit]",
COc1cccc(C(=O)Nc2ccccc2OC(F)(F)F)c1,"35.5 µM [rising, partial curve, poor fit]",
CC1=NNC(=O)C1C(c1ccccc1)C1C(=O)NN=C1C (configuration not stated),"4.47 µM [falling, partial curve, poor fit]","35.5 µM [falling, single point]"
Cc1cc(=O)[nH]c(SCC(=O)Nc2cccc3ccccc23)c1C#N,"20.6 µM [falling, partial curve, poor fit]",
CCCOc1ccc(C(=O)Nc2ccc(S(=O)(=O)N3C[C@@H]4C[C@@H](C3)c3cccc(=O)n3C4)cc2)cc1,"2.31 µM [falling, partial curve, poor fit]",
C=CCn1c2ccccc2c2nnc(SCCN3CCOCC3)nc21,"10 µM [falling, partial curve, poor fit]",
CCOC(=O)c1ccc(Nc2ccc([N+](=O)[O-])cn2)cc1,"4.11 µM [rising, full curve, poor fit]",
N/C(=N\NC(=O)c1cccs1)c1cc2cc(Cl)ccc2oc1=O,"35.5 µM [falling, single point]",
O=C1OC(c2ccc(F)cc2)=N/C1=C\C=C/c1ccccc1,"12.6 µM [falling, single point]",
CCOc1ccc(/C=C/C(=O)c2c(O)c3ccccc3oc2=O)cc1,"0.631 µM [falling, full curve, poor fit]",
O=C(NCC(c1cccs1)N1CCOCC1)c1cc(-c2ccccn2)nc2ccccc12 (configuration not stated),"2.51 µM [rising, partial curve, poor fit]",

# Random excerpt: two compounds from above.
Compound,AC50 [1],AC50 [2]
O=C1OC(c2ccc(F)cc2)=N/C1=C\C=C/c1ccccc1,"12.6 µM [falling, single point]",
COc1cccc(C(=O)Nc2ccccc2OC(F)(F)F)c1,"35.5 µM [rising, partial curve, poor fit]",

# (continued)

Compound,AC50 [1],AC50 [2]
COc1ccc(/C=C/C(=O)C(C)(C)C)cc1OC,"1.12 µM [rising, partial curve, poor fit]",
CCN1CCN(C(=O)c2ccc(CS(=O)(=O)Cc3ccccc3C)o2)CC1,"6.31 µM [rising, partial curve, poor fit]",
COc1ccccc1-n1cnc2cc(NCc3cccs3)ccc21,"5.8 µM [falling, single point]","6.51 µM [falling, partial curve]"
COc1ccc(NC(=O)c2cccc([N+](=O)[O-])c2)cc1,"2.51 µM [falling, full curve, poor fit]",
COc1ccc(C2C(C#N)=C(N)Oc3n[nH]c(C)c32)cc1CSc1ccccn1 (configuration not stated),"0.517 µM [falling, partial curve, poor fit]",
Cc1[nH]c2ccccc2c1SCCNC(=O)c1ccc(S(=O)(=O)N2CCCC2)cc1,"16.4 µM [falling, single point]",
Cc1ccc(S(=O)(=O)CCC(=O)Nc2ccc(F)cc2)cc1,"14.1 µM [rising, partial curve, poor fit]",
Cc1ccc([N+](=O)[O-])cc1NC(=O)C[n+]1ccccc1,"10 µM [rising, partial curve, poor fit]",
Cc1cc(/C=N\NC(=O)c2cccs2)c(C)n1-c1ccc2ncccc2c1,"35.5 µM [falling, single point]",
Cn1c(-c2ccc3c(c2)OCO3)cnc1NCc1ccccc1Cl,"7.94 µM [falling, partial curve, poor fit]",
CC1=NN(C(=O)c2ccccc2Br)C(O)(c2ccc(Cl)cc2)C1 (configuration not stated),"6.31 µM [falling, full curve]",
CCc1ccc(C(=O)NN(C(=O)c2ccc(CC)cc2)C(C)(C)C)cc1,"2.59 µM [rising, partial curve, poor fit]",
O=[N+]([O-])c1cccc(-c2nc(-c3ccncc3)no2)c1,"4.47 µM [rising, full curve, poor fit]",
COc1cccc(N2CCN(C(=O)c3cc4c(s3)CCCCC4)CC2)c1,"5.17 µM [falling, full curve, poor fit]",
O=C1c2ccccc2NC(c2ccc(Br)o2)N1O (configuration not stated),"16.4 µM [falling, single point]",
O=C(COc1ccccc1)Nc1nnc(-c2ccccc2)o1,"16.4 µM [falling, single point]",
Cc1cc2oc(C(=O)Nc3ccc(S(=O)(=O)Nc4onc(C)c4C)cc3)cc(=O)c2cc1Cl,"1.26 µM [falling, full curve]",
CSc1nc(N)c(C(=O)NC2CCCCC2)s1,"7.94 µM [falling, partial curve]",
Cc1c(C(=O)Oc2cccc3cccnc23)cccc1[N+](=O)[O-],"17.8 µM [rising, single point]","28.2 µM [falling, single point]"
Nc1ccc(C(=O)N2CCN(S(=O)(=O)c3ccc4c(c3)OCCO4)CC2)cc1[N+](=O)[O-],"5.62 µM [falling, partial curve]",

Compound,AC50 [1],AC50 [2]
CC(=O)c1cccc(CN2CCN(C(C)C)C(CCO)C2)c1 (configuration not stated),"0.562 µM [rising, full curve, poor fit]",
CCC(C)(C(=O)NC1CCCCC1)N(CC1CCCO1)C(=O)CNC(=O)c1ccccc1 (configuration not stated),"20.6 µM [falling, single point]",
COc1ccc(NCC(=O)n2c(C)c(C)c3ccccc32)cc1,"10 µM [falling, partial curve, poor fit]","35.5 µM [falling, partial curve, poor fit]"
CCOC(=O)c1sc(NC(=O)c2ccncc2)c(C#N)c1C,"2.31 µM [rising, partial curve, poor fit]",
CCOc1ccc2cc(/C=C/C(=O)c3ccco3)c(Cl)nc2c1,"1.84 µM [rising, full curve, poor fit]",
COc1cccc(-c2cc(C(F)(F)F)nc(N3CCCCC3)n2)c1,"0.224 µM [rising, full curve, poor fit]",
Cn1ncc2c(O/N=C(\N)c3ccc(C(F)(F)F)cc3)ncnc21,"5.01 µM [rising, partial curve, poor fit]",
Cc1cccc(NC(=S)NNC(=O)c2ccc(O)cc2O)c1C,"11.2 µM [falling, partial curve]",
CC[C@]12c3[nH]c4cc(CCC(=O)N(C)C)ccc4c3CCN1C(=O)[C@@H](CC(=O)NC/C=C(\C)CCC=C(C)C)C[C@@H]2C(=O)N1CCN(C(=O)c2ccco2)CC1,"6.51 µM [rising, single point]","8.2 µM [falling, partial curve]"
COc1ccc(-c2csc(N(C)C(=O)c3ccco3)n2)cc1,"3.98 µM [rising, full curve]",
CCn1c(SCC(=O)Nc2cccc(NC(=O)c3ccco3)c2)nnc1-c1cccs1,"2.91 µM [falling, partial curve]",
CCOc1ccc(NC(=O)CCc2nnc3ccc(N4CCC5(CC4)OCCO5)nn23)cc1,"35.5 µM [rising, single point]",
CCn1c(COc2ccc(OC)cc2)nc2ccccc21,"3.98 µM [rising, partial curve, poor fit]",
O=C(CCCN1C(=O)c2ccccc2C1=O)Nc1ccccc1,"12.6 µM [rising, partial curve]",
Cc1ccc(-c2nnc(Nc3ccc(CC(N)=O)cc3)c3ccccc23)cc1S(=O)(=O)NCC1CCCO1 (configuration not stated),"12.6 µM [falling, partial curve]",
Oc1ccc(Nc2nc(-c3ccccc3O)nc3ccccc23)cc1,"35.5 µM [falling, single point]",
CCc1nc2ccccc2c(C(=O)OCC(=O)Nc2cccc(S(=O)(=O)NC3=NCCCCC3)c2)c1C,"35.5 µM [falling, single point]","35.5 µM [rising, partial curve, poor fit]"
O=C1C(=O)N(c2ccccc2)c2ccccc21,"29.1 µM [rising, single point]",
CCOc1ccc(N(C)S(=O)(=O)c2ccc(C)c(C(=O)Nc3nnc(C4CC4)s3)c2)cc1,"0.013 µM [rising, full curve, poor fit]",
CC(C)(C)CC(=O)O/N=C(\N)c1ccccn1,"16.4 µM [falling, single point]",

# Grouped by structure: the entries above containing a nitro group on carbon (6)
Compound,AC50 [1],AC50 [2]
CCOC(=O)c1ccc(Nc2ccc([N+](=O)[O-])cn2)cc1,"4.11 µM [rising, full curve, poor fit]",
COc1ccc(NC(=O)c2cccc([N+](=O)[O-])c2)cc1,"2.51 µM [falling, full curve, poor fit]",
Cc1ccc([N+](=O)[O-])cc1NC(=O)C[n+]1ccccc1,"10 µM [rising, partial curve, poor fit]",
O=[N+]([O-])c1cccc(-c2nc(-c3ccncc3)no2)c1,"4.47 µM [rising, full curve, poor fit]",
Cc1c(C(=O)Oc2cccc3cccnc23)cccc1[N+](=O)[O-],"17.8 µM [rising, single point]","28.2 µM [falling, single point]"
Nc1ccc(C(=O)N2CCN(S(=O)(=O)c3ccc4c(c3)OCCO4)CC2)cc1[N+](=O)[O-],"5.62 µM [falling, partial curve]",
